# Measured values taken from article PMC5919733.
# Chains of the proteins cited; added tags and fusions are not shown.
# UniProt Q02248: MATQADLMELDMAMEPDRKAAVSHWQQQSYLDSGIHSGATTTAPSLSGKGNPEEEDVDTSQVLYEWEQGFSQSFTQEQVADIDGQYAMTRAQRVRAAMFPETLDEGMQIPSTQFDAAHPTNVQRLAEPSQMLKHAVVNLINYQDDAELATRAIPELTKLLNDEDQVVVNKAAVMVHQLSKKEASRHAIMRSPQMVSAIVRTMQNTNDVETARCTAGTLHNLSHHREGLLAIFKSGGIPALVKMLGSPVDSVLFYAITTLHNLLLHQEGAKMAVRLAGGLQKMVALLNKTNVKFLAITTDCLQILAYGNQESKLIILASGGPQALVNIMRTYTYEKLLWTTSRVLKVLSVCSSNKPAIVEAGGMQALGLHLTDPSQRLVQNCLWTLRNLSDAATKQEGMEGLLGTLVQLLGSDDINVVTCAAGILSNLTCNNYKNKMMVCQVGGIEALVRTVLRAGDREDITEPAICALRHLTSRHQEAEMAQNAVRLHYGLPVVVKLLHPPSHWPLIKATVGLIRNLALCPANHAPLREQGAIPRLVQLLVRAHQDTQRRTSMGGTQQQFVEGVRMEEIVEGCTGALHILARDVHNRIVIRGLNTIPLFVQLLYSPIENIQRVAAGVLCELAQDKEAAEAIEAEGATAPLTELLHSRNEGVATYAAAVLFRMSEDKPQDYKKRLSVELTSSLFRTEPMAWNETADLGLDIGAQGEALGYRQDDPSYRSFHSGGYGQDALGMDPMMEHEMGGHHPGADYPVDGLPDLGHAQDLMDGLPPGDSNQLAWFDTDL
# UniProt Q61188: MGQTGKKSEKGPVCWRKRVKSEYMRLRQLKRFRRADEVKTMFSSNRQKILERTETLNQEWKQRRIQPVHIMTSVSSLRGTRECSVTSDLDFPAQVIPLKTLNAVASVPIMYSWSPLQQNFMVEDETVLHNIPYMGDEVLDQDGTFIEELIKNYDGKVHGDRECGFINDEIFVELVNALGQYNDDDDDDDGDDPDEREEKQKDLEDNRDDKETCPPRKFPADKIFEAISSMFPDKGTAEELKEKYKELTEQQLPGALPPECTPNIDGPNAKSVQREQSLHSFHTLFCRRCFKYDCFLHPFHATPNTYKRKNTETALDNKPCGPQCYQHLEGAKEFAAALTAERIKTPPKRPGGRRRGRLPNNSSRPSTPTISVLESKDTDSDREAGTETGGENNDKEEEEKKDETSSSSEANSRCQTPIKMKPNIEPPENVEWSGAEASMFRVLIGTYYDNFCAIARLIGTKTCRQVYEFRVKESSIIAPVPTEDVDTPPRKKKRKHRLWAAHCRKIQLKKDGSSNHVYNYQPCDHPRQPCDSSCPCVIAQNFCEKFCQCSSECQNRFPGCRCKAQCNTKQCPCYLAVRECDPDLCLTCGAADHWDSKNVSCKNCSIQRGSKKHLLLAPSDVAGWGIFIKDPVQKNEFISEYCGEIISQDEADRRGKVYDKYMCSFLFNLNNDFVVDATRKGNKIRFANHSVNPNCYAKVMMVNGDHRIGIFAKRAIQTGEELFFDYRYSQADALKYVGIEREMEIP
# UniProt Q80U70: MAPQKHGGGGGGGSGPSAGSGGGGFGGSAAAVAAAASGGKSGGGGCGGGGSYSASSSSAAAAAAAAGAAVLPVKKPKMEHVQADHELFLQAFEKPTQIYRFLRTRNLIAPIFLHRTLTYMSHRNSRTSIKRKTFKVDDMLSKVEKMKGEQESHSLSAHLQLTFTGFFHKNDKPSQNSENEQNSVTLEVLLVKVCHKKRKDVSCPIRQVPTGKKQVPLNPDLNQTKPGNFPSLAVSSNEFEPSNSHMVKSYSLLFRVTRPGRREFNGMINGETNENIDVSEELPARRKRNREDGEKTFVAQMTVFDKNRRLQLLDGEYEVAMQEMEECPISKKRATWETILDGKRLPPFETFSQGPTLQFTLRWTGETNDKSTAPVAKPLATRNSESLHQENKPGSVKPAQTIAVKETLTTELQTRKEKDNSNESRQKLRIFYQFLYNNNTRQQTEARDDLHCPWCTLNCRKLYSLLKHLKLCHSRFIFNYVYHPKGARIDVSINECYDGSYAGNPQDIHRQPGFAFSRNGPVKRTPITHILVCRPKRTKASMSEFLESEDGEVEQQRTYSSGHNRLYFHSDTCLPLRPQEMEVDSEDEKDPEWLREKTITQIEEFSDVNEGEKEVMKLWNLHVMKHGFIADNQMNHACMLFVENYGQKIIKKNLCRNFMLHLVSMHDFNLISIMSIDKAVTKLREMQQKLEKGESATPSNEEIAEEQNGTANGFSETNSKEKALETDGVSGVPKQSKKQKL
# No constants are given. Whether binding was seen depends on the method and setting. In cells and extracts the contact can be indirect. Some entries that bind do so weakly or less than the wild type.
# Legend:
# [1] = molecular target: β-catenin (mouse (endogenous in E13.5 cranial mesenchyme)) (UniProt Q02248); assay: co-IP; endogenous proteins in lysate of PDGFRα-enriched E13.5 mouse cranial mesenchyme (50 mM Tris pH 7.5, 250 mM NaCl, 2 mM EGTA, 1% Triton X-100); antibody to nonphospho-β-catenin or EZH2 overnight at 4°, Protein G Dynabeads, washes with 300 mM NaCl, 0.2% NP40; Western blot; IgG as negative control
# [2] = molecular target: Enhancer of Zeste homolog 2 (EZH2) (mouse (endogenous in E13.5 cranial mesenchyme)) (UniProt Q61188); assay: as above
binding [1],binding [2],Substance
binds,–,Enhancer of Zeste homolog 2 (EZH2) (from UniProt Q61188 1-746)
binds,–,SUZ12 (from UniProt Q80U70 1-741)
–,binds,β-catenin (from UniProt Q02248 1-781)
